The list shows a part of the results.
What follows are sequences tested against T1, OsSMF1 (Oryza sativa, UniProt Q6ZLB0 1-436) (assay: protein-binding microarray (RPBM); PBS, 2% BSA, 51.3 ng/ul salmon testes DNA, 50 uM zinc acetate, 200 nM TF, 25 C, 1 h; high values mean tight binding). Settings: protein: recombinant; tags: N-terminal polyhistidine and DsRed monomer fusion (pET32a); chain copies: 2; label: CyDye5-dUTP incorporated in the synthesized complementary strand; 3' TTTTT single-stranded linker to array surface; dsDNA, one strand shown.
T1 sequence: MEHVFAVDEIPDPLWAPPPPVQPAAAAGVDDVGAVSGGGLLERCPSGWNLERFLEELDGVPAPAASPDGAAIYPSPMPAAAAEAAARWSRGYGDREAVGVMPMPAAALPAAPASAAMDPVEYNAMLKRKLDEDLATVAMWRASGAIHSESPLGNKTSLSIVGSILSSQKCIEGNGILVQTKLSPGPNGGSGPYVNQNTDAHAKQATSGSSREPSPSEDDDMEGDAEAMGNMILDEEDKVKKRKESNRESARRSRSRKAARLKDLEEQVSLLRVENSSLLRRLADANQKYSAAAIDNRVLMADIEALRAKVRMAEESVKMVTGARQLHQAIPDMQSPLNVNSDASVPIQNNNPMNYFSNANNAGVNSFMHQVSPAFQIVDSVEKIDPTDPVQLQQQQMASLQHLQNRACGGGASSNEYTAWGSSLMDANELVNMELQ
Method in brief: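 The binding signal is fluorescence intensity per feature, in arbitrary units, read on an Axon 4000B scanner. Polyhistidine- and DsRed-tagged transcription factors (N-terminal fusions) from E. coli BL21-CodonPlus were purified on Ni–NTA and applied at 200 nM for 1 h at 25 °C to a double-stranded, BSA-blocked custom Agilent array in buffer with 50 µM zinc acetate.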
“TTCTAATCTCTATGACATCAGAGAACATTCTAACTGACCTCGGAGTCACCTAGTGCAG” was tested, and the binding signal was 3640 fluorescence intensity (a.u.). “TTGGTCGACATGGGTGGGAGGCGGATCGATGACGTAGAATCGGAGTCACCTAGTGCAG” was tested, and the binding signal was 5440 fluorescence intensity (a.u.). For “AATTTGCATCAGCAGTACTGCATCAGCAGTATTACAGATGCGGAGTCACCTAGTGCAG”, the binding signal was 4420 fluorescence intensity (a.u.). “ATGACATTGTCCTGCCATTCGTCGTCCCTCCACCGCAATACGGAGTCACCTAGTGCAG” was tested, and the binding signal was 3180 fluorescence intensity (a.u.). With “CATGACAAATTAATCCGGCTGCACGTCACGAGCTCGCGCTCGGAGTCACCTAGTGCAG” the binding signal was 6690 fluorescence intensity (a.u.). With “GGAACAGTACTTGTATGTCACTCCATTCCTCAATGTTATGCGGAGTCACCTAGTGCAG” the binding signal was 3210 fluorescence intensity (a.u.). In the case of “ATGGCTCCAATGTGCTTATGCAAATCCCACATGGCAGTCACGGAGTCACCTAGTGCAG”, the binding signal was 3730 fluorescence intensity (a.u.). With “ACCCAACGGTGATGATGTCAGCTGACGTGGCGCCCCGGAGCGGAGTCACCTAGTGCAG” the binding signal was 40500 fluorescence intensity (a.u.). In the case of “AGGTAATTAAGCTGCGGCGGCTGATCTGCGCTCGATCCTTCGGAGTCACCTAGTGCAG”, the binding signal was 3430 fluorescence intensity (a.u.). For “CTATGGCTGATGGTTTCTAGCAAATCGGTCCTGCATTCAACGGAGTCACCTAGTGCAG”, the binding signal was 16700 fluorescence intensity (a.u.). With “CGAGCAAAGGGCCCACGGTGTCAGCTCACATCAGCCGGCCCGGAGTCACCTAGTGCAG” the binding signal was 3500 fluorescence intensity (a.u.). In the case of “ACGGGCCAGTCAACGGACACGTCACCCGGTCAGCGCCATCCGGAGTCACCTAGTGCAG”, the binding signal was 16500 fluorescence intensity (a.u.). In the case of “TGGCGCTGAGGTAGCTGCCACGTCAGCTGGGGATCGGCCCCGGAGTCACCTAGTGCAG”, the binding signal was 36300 fluorescence intensity (a.u.). “GTCTCCCTCTCCCTCTCCCACCCCGCCTCCCTCCTCGACGCGGAGTCACCTAGTGCAG” was tested, and the binding signal was 15300 fluorescence intensity (a.u.). In the case of “GGCCAGGATGATCGAGCACTTGGTTGTGACACAGAGGGTGCGGAGTCACCTAGTGCAG”, the binding signal was 3220 fluorescence intensity (a.u.). For “ATCGCTGGGACACGTCACCTTCCTTTCTATGCTCTCTTGACGGAGTCACCTAGTGCAG”, the binding signal was 25900 fluorescence intensity (a.u.). “TGTAACTTTGTCACTGTCACGTGGGTCTAATGATCCCTAGCGGAGTCACCTAGTGCAG” was tested, and the binding signal was 7840 fluorescence intensity (a.u.). With “GCAGTTTGATCACTTAGCTAGATGATCTCCTGCATGCGATCGGAGTCACCTAGTGCAG” the binding signal was 10900 fluorescence intensity (a.u.). With “GGCACGCTCTTGCGTATCGCCATTGTTCAGGTGAGTCGATCGGAGTCACCTAGTGCAG” the binding signal was 3400 fluorescence intensity (a.u.). For “ATCGTACATGGGCTCTAGACTCAGCACGTGGGGCCAACACCGGAGTCACCTAGTGCAG”, the binding signal was 3330 fluorescence intensity (a.u.). “CGACGCCGACTGACTCACCCGCCGGCGAGCCCACGCCGCCCGGAGTCACCTAGTGCAG” was tested, and the binding signal was 5630 fluorescence intensity (a.u.). With “CTTTTGGCTTTCAGAAATCTGAGGTGTGTACTGCAGTCTTCGGAGTCACCTAGTGCAG” the binding signal was 3650 fluorescence intensity (a.u.). In the case of “TATAATATTTGCCTCCACCCATGACGTACGGATGTGGACACGGAGTCACCTAGTGCAG”, the binding signal was 5200 fluorescence intensity (a.u.). With “TTCTCCGGCGACACTGCCACTGCCACGCGTCCCTCCCTTCCGGAGTCACCTAGTGCAG” the binding signal was 10500 fluorescence intensity (a.u.). For “TGACTCGGCCGGCCCGGTTGCTGACTCCGCAAATCCACTGCGGAGTCACCTAGTGCAG”, the binding signal was 7140 fluorescence intensity (a.u.). With “GGAGAAGGGGAGGAGAAGAAAAGAAGAGGCGAAGCCCTGCCGGAGTCACCTAGTGCAG” the binding signal was 3340 fluorescence intensity (a.u.). With “AAGATGTGATGAGTGACGATGACATATTGGGCCACATAGGCGGAGTCACCTAGTGCAG” the binding signal was 5010 fluorescence intensity (a.u.). For “TAGCACCACATTGTCAAATCATGACGTAATTAGGCTCAAACGGAGTCACCTAGTGCAG”, the binding signal was 5740 fluorescence intensity (a.u.). “GGCGGCGCCGACGACTCCGCGCCGCTCGGCCTCATCGTCGCGGAGTCACCTAGTGCAG” was tested, and the binding signal was 3190 fluorescence intensity (a.u.). With “ATCATGTCAAAGCACCACGTCAGTGAAACCACTATTAAAACGGAGTCACCTAGTGCAG” the binding signal was 3720 fluorescence intensity (a.u.). “CTAGCGTCCACCGCCTCTCCGCCACCGCCGCCGCCGCCTCCGGAGTCACCTAGTGCAG” was tested, and the binding signal was 10700 fluorescence intensity (a.u.). For “CTCCCGCCGTCTCCGTCACCGTCTACCGTTTGCTCCAGTGCGGAGTCACCTAGTGCAG”, the binding signal was 5160 fluorescence intensity (a.u.). For “TTTGTTTTGATATCTTTATATAAAGTAGTATCGGAGTATTCGGAGTCACCTAGTGCAG”, the binding signal was 3320 fluorescence intensity (a.u.). “AGTGGGGATGGGATGTGCAATCCTGGTGCTAGGCGAAATTCGGAGTCACCTAGTGCAG” was tested, and the binding signal was 3190 fluorescence intensity (a.u.). With “TTGGAGGATAGGAGCTTGGCCAGCGTGACGAGGCAGAAGCCGGAGTCACCTAGTGCAG” the binding signal was 5740 fluorescence intensity (a.u.). “TCTATTAAAGCTGGAGATTAAACACCATCGTACTACTTTGCGGAGTCACCTAGTGCAG” was tested, and the binding signal was 3800 fluorescence intensity (a.u.). In the case of “CCGTCCTGCTCTTCAGACACCGCAGCATCAAGAAGCCGCCCGGAGTCACCTAGTGCAG”, the binding signal was 3290 fluorescence intensity (a.u.). In the case of “CTCTCAATTCAAATCACCCACGTCAACAGAAGTAATCAGCCGGAGTCACCTAGTGCAG”, the binding signal was 5670 fluorescence intensity (a.u.). For “ATTAGGGTTTTACACCACCTCTCTCCGTGCTCCTCCTCTCCGGAGTCACCTAGTGCAG”, the binding signal was 15100 fluorescence intensity (a.u.). For “TTCTAATACCACATAAACGCCACGTAGGACAAAGACTCGGCGGAGTCACCTAGTGCAG”, the binding signal was 17500 fluorescence intensity (a.u.). In the case of “CTCTCATGGTGGAGCTGCGTGGCATGGTCATGCCAATACTCGGAGTCACCTAGTGCAG”, the binding signal was 6150 fluorescence intensity (a.u.). In the case of “GCATATAACTATGATAAACCACGTCAAATTAGGCCCGTTTCGGAGTCACCTAGTGCAG”, the binding signal was 4950 fluorescence intensity (a.u.).

From article PMC7819943, “Rice protein-binding microarrays: a tool to detect cis-acting elements near promoter regions in rice”
